Measurements reported in PubChem BioAssay AID686943 (Drosophila RNAi Screening Center, 2013)
Assay: 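Fly genes whose loss alters ERK activation after insulin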 (primary screen). System: Drosophila S2R+ haemocyte-like cells expressing YFP-tagged ERK (Rolled). Reagents: long dsRNA against Drosophila genes. Conditions: insulin stimulation versus unstimulated cells; dose and duration not given. Detection: 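Antibody staining for doubly phosphorylated ERK divided by ERK-YFP signal, as plate z-scores, in insulin-treated and untreated cells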. Reading the numbers: replicate 1, z-score of dpERK with insulin and replicate 2, z-score of dpERK with insulin: higher = more active ERK per ERK-YFP after insulin; replicate 1, z-score of dpERK under basal conditions: higher = more basal active ERK per ERK-YFP; replicate 1, z-score of ERK-YFP with insulin: higher = more YFP-tagged ERK signal.
The deposit covers about 23,000 reagents; shown is an unselected part of those with a known target gene and a result. 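Extra replicates exist only for a retested subset of genes; insulin dose and duration not given; both raised and lowered dpERK matter.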 Reagents against one gene are numbered here. Reagent sequences are not shown. Not given: the amount of reagent, the time to read-out.

| target | dsRNA no. | replicate 1, z-score of dpERK with insulin | replicate 2, z-score of dpERK with insulin | replicate 1, z-score of dpERK under basal conditions | replicate 1, z-score of ERK-YFP with insulin |
| --- | --- | --- | --- | --- | --- |
| Mipp1 | 1 | 1.85 | 0.19 | -1.28 | -0.28 |
| vir | 1 | -0.91 | -0.39 | 0.7 | 1.04 |
| CG15306 | 1 | 0.34 | -0.52 | 0.88 | 0.51 |
| CG15306 | 2 | 0.6 | -1.64 | 1.64 | -0.06 |
| Cpr65Aw | 1 | -1.52 | -1.21 | 0.4 | -0.83 |
| CG11226 | 1 | 0.43 | -0.07 | -0.62 | -0.13 |
| CG7309 | 1 | -0.16 | -1.48 | -0.32 | 0.22 |
| CG17977 | 1 | 0.69 | 0.5 | 0.83 | 0.17 |
| pyd3 | 1 | 1.23 | -0.15 | -1.17 | -0.09 |
| pyd3 | 2 | 0.15 | -0.4 | 0.55 | -0.78 |
| LManVI | 1 | 1.36 | 1.75 | 1.84 | -1.22 |
| CG11843 | 1 | -0.55 | 0 | -0.93 | -0.07 |
| Cyp6a15Psi | 1 | -0.03 | 0.4 | 0.03 | -0.56 |
| Nup58 | 1 | -1.36 | 1.07 | -1.34 | 0.44 |
| Cda4 | 1 | 0.93 | 0.07 | -0.41 | 0.6 |
| Cda4 | 2 | 0.63 | -0.04 | -0.45 | -0.09 |
| Cda4 | 3 | -0.22 | 0.15 | -0.31 | 0.2 |
| CG11041 | 1 | 0.3 | -0.65 | -0.53 | -0.14 |
| Su(var)2-HP2 | 1 | 0.14 | -0.75 | -0.23 | -0.39 |
| CG31909 | 1 | 0.11 | 0.16 | -1.02 | -1.41 |
| Sec13 | 1 | 0.92 | -0.11 | 2.36 | -2.67 |
| CG43132 (retired record) | 1 | -0.07 | 0.22 | 0.45 | 0.01 |
| Syn | 1 | -0.51 | 1.09 | 0.17 | 0.38 |
| Gs1 | 1 | 1.11 | 0.81 | -0.57 | 1.02 |
| Adgf-A2 | 1 | 0.41 | 0.01 | 1.74 | -0.12 |
| CG13615 | 1 | -0.59 | 0 | -0.34 | 1.95 |
| IP3K2 | 1 | 0.56 | -1.07 | -1.52 | 0.31 |
| IP3K2 | 2 | 0.65 | 0.11 | -0.14 | 0.56 |
| IP3K2 | 3 | 0.16 | 0.84 | -0.37 | 0.55 |
| Cdc2rk | 1 | 0.39 | 0.29 | 0.48 | 0.67 |
| nrv2 | 1 | -1.08 | 0.16 | -0.42 | -0.15 |
| nrv2 | 2 | 0.93 | 0.19 | 0.43 | 0.86 |

Just “replicate 1, z-score of dpERK with insulin” (11 entries from above):
Mipp1	1.85
vir	-0.91
CG15306 #1	0.34
CG15306 #2	0.6
Cpr65Aw	-1.52
CG11226	0.43
CG7309	-0.16
CG17977	0.69
pyd3 #1	1.23
pyd3 #2	0.15
LManVI	1.36

The list goes on:
| target | dsRNA no. | replicate 1, z-score of dpERK with insulin | replicate 2, z-score of dpERK with insulin | replicate 1, z-score of dpERK under basal conditions | replicate 1, z-score of ERK-YFP with insulin |
| --- | --- | --- | --- | --- | --- |
| mAcon1 | 1 | 0.8 | -0.13 | -0.62 | -0.44 |
| CG15547 | 1 | 0.48 | -0.03 | 0.82 | 0.51 |
| CG14627 | 1 | -0.88 | 0.92 | -0.97 | 1.06 |
| Lar | 1 | -1.01 | -1.24 | -1.04 | 0.53 |
| Lar | 2 | -0.61 | 0.22 | 0.17 | -0.04 |
| PHDP | 1 | -0.01 | -0.09 | 0.54 | 0.38 |
| CG10467 | 1 | 0.29 | -0.27 | 0.22 | 0.12 |
| Ktl | 1 | 0.23 | -0.06 | 0.33 | -0.25 |
| CG7201 | 1 | 0.74 | 0.56 | -0.71 | 0.79 |
| CG10657 | 1 | 0.47 | 0.59 | -0.08 | 0.5 |
| lola | 1 | -4.13 | -4.54 | -0.68 | -0.81 |
| lola | 2 | -0.48 | 0.25 | -0.07 | 1.34 |
| lola | 3 | -0.2 | 0.76 | 1.31 | -0.76 |
| lola | 4 | -2.11 | -1.49 | 1.08 | 0.28 |
| lola | 5 | 0.01 | -1.66 | 1.82 | 1.55 |
| lola | 6 | 0.37 | 1.08 | 1.82 | -5.37 |
| lola | 7 | 0.31 | 0.88 | -1.13 | -0.56 |
| lola | 8 | -0.09 | -0.09 | 0.72 | 0.39 |
| lola | 9 | -0.77 | 0.12 | 0.33 | 0.91 |
| lola | 10 | -4.59 | -3.74 | -1.04 | -1.81 |
| lola | 11 | 0.03 | -0.28 | -0.32 | -0.36 |
| lola | 12 | -0.65 | -0.27 | -0.6 | 1.48 |
| Gmppb | 1 | -0.21 | 1.32 | -0.53 | -0.71 |
| CG14965 | 1 | 0.15 | -0.01 | 1.06 | 0.03 |
| l(2)k09848 | 1 | -0.33 | -0.21 | -1.92 | -0.95 |
| Ir25a | 1 | 0.16 | 0.09 | -0.3 | -0.94 |
| Syx8 | 1 | 0.29 | -1.02 | -0.03 | 0.37 |
| Syx8 | 2 | -0.17 | -0.86 | 0.39 | -1.36 |
| FBXO11 | 1 | 0.36 | 0.22 | -0.32 | -2.6 |
| Targ1 | 1 | -0.52 | -0.23 | 1.01 | -0.35 |
| Regnase-1 | 1 | -0.11 | 0.42 | -0.73 | -0.04 |
| Tg | 1 | -0.63 | -0.37 | 0.44 | -0.06 |
| CG13698 | 1 | 0.21 | -0.43 | -0.6 | -0.42 |
| CG10587 | 1 | -0.07 | 0.06 | -0.25 | -0.46 |
| CG8155 | 1 | 0.25 | -0.05 | -0.26 | 0.03 |
| CG8155 | 2 | 0.77 | 1.17 | 0.14 | -0.26 |
| CG3581 | 1 | 0.45 | 0.02 | 0.36 | -0.34 |
| lncRNA:CR43434 | 1 | 0.88 | 0.77 | -0.23 | -0.61 |
| CG1074 | 1 | 0.17 | -0.06 | 0.57 | 0.83 |
| nonA | 1 | -0.11 | 0.71 | 0.7 | -1.22 |
| klhl10 | 1 | 0.25 | -0.89 | 0.19 | -0.14 |
| klhl10 | 2 | 0.5 | 1.6 | 0.09 | -0.25 |
| klhl10 | 3 | -1.38 | 0.08 | 0.95 | 0.36 |
| klhl10 | 4 | 0.06 | 0.07 | 1.52 | 0.33 |
